pIC50: −log10 of the molar value. The match of structure and compound is tentative.
Key:
[1] = target: APT2 (Homo sapiens, UniProt O95372); assay: APT2 enzymatic assay, resorufin acetate as fluorogenic substrate; format: biochemical; conditions: read-out: IC50 APT2; Table 3, class symbols
[2] = target: APT1 (Homo sapiens, UniProt O75608); assay: APT1 enzymatic assay, resorufin acetate as fluorogenic substrate; format: biochemical; conditions: read-out: IC50 APT1; Table 3, class symbols

The chains behind the UniProt entries cited, without tags or fusion partners.
UniProt O95372, whole entry: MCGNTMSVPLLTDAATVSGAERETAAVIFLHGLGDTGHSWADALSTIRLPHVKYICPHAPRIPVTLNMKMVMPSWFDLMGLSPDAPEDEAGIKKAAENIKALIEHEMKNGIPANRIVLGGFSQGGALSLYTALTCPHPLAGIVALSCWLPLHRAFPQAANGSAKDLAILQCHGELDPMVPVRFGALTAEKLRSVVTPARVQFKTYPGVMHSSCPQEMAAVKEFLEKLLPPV
UniProt O75608, whole entry: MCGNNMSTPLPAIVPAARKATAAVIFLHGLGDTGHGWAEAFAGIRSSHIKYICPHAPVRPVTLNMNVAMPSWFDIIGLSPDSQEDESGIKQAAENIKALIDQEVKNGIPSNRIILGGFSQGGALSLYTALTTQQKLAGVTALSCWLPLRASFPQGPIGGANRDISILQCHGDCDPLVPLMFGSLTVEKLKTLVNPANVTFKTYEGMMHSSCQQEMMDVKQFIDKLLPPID

**Q.** `CN(C)c1ccc(N2CCN(C(=O)c3cc4c(s3)-c3ccccc3S(=O)(=O)C4)CC2)cc1` was tested. Which pIC50 [1] did it give?
**A.** The pIC50 was 4.40 to 6.00.

**Q.** And the pIC50 [2]?
**A.** Its pIC50 is under 4.40.

— patent publication US20250092067A1, “APT1 and APT2 Inhibitors and Uses Thereof” (Cornell University, priority 2021, published 2025)
